Results deposited as PubChem BioAssay AID1259254 (NCATS, 2017)

- Test: 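Finding genes that stop cells copying their DNA twice in one cycle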 (primary screen)
- Cell system: human HCT116 colorectal cancer cells
- Knock-down reagent: single siRNA against human genes
- Time to read-out: 3 days
- Measured: 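Nuclei stained with Hoechst and imaged; cell-cycle phase assigned by DNA content; G2 share scaled per plate, non-targeting siRNA 0%, GMNN siRNA 100%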
- Scale: G2 robust z-score and G2 cells, % of GMNN control: higher = more G2 cells, more excess DNA replication; raw share of cells in G2: higher = larger share of cells with G2 DNA content
- Active means: 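Active siRNAs have a G2 robust z of 5 or more median absolute deviations over the median, which in these data means about 38% or higher of GMNN control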
The deposit covers about 59,000 reagents; below is an unselected part. About 1,550 of all reagents (2.6%) count as active. 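G2 share is only a proxy for re-replication; each gene was hit by three separate siRNAs, and active genes were retested.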 Raw values vary from plate to plate and are shown uncorrected. The numbers tell different reagents against one gene apart. Not given: the amount of reagent.

gene symbol	reagent	G2 robust z-score	G2 cells, % of GMNN control	raw share of cells in G2 (%)	call
MOGAT1	1	-0.0683	2.49	6.83	inactive
MOGAT1	2	3.9	30.4	16	inactive
MOGAT1	3	-0.248	1.22	5.49	inactive
IQSEC1	1	-0.556	-0.942	4.9	inactive
IQSEC1	2	1.36	12.5	9.16	inactive
IQSEC1	3	4.61	35.4	16.3	inactive
ANKRD9	1	1.21	11.5	8.7	inactive
ANKRD9	2	0.219	4.51	4.67	inactive
ANKRD9	3	-0.19	1.63	2.29	inactive
PRAMEF12	1	0.0589	3.38	5.04	inactive
PRAMEF12	2	-0.307	0.811	3.84	inactive
PRAMEF12	3	-1.3	-6.16	2.23	inactive
EVI5	1	0.93	9.51	9.35	inactive
EVI5	2	1.36	12.5	8.86	inactive
EVI5	3	-0.992	-4.01	1.93	inactive
LOC644554	1	-0.229	1.35	4.15	inactive
LOC644554	2	0.301	5.08	5.1	inactive
LOC644554	3	0.0985	3.66	4.21	inactive
LENG1	1	-0.454	-0.23	4.48	inactive
LENG1	2	0.872	9.1	8.69	inactive
LENG1	3	1.69	14.8	6.62	inactive
MARCHF4	1	1.82	15.8	9.93	inactive
MARCHF4	2	-0.0809	2.4	5.1	inactive
MARCHF4	3	-0.0863	2.36	6.62	inactive
RAG1	1	0.367	5.55	6.89	inactive
RAG1	2	-0.167	1.79	5.36	inactive
RAG1	3	2.36	19.6	10.7	inactive
METAP1	1	-0.16	1.84	6.2	inactive
METAP1	2	1.93	16.5	10.8	inactive
METAP1	3	-0.35	0.504	4.1	inactive
DNM3	1	-1.22	-5.64	3.6	inactive
DNM3	2	-0.611	-1.33	3.74	inactive
DNM3	3	1.42	12.9	8.22	inactive

Continued; the last 4 above are carried over.
gene symbol	reagent	G2 robust z-score	G2 cells, % of GMNN control	raw share of cells in G2 (%)	call
METAP1	3	-0.35	0.504	4.1	inactive
DNM3	1	-1.22	-5.64	3.6	inactive
DNM3	2	-0.611	-1.33	3.74	inactive
DNM3	3	1.42	12.9	8.22	inactive
ARHGAP30	1	5.5	41.7	19.9	active
ARHGAP30	2	-0.855	-3.05	3.42	inactive
ARHGAP30	3	2.51	20.7	15.8	inactive
ZNF99	1	-0.856	-3.06	2.51	inactive
ZNF99	2	-1.43	-7.08	2.83	inactive
ZNF99	3	0.173	4.18	5.09	inactive
C1orf122	1	-0.336	0.602	2.8	inactive
C1orf122	2	1.01	10.1	7.97	inactive
C1orf122	3	-0.592	-1.2	2.72	inactive
TMEM127	1	0.268	4.85	6.39	inactive
TMEM127	2	-0.379	0.299	4.26	inactive
TMEM127	3	0.344	5.39	4.86	inactive
SLC29A1	1	0.641	7.48	6.32	inactive
SLC29A1	2	1.47	13.3	10.1	inactive
SLC29A1	3	-0.441	-0.135	5.21	inactive
NCOR1P2	1	-0.216	1.45	3.7	inactive
NCOR1P2	2	0.982	9.88	7.98	inactive
NCOR1P2	3	-0.902	-3.38	2.08	inactive
ZNF69	1	-0.446	-0.171	3.47	inactive
ZNF69	2	2.38	19.7	14.8	inactive
ZNF69	3	-0.919	-3.5	1.87	inactive
ELMO1	1	-0.358	0.452	3.35	inactive
ELMO1	2	0.096	3.64	6.23	inactive
ELMO1	3	2.2	18.4	12.2	inactive
FURIN	1	4.07	31.6	16.6	inactive
FURIN	2	3.91	30.5	15.7	inactive
FURIN	3	1.01	10.1	7.67	inactive
RNF183	1	2.11	17.8	10.9	inactive
RNF183	2	1.61	14.3	7.64	inactive
RNF183	3	-0.584	-1.14	2.17	inactive
RNASEH2B	1	1.02	10.1	9	inactive
RNASEH2B	2	0.317	5.2	6.94	inactive
RNASEH2B	3	-0.495	-0.515	2.56	inactive
CFAP119	1	-0.45	-0.197	4	inactive
CFAP119	2	0.0275	3.16	3.99	inactive
CFAP119	3	0.265	4.83	4.46	inactive
